Laboratory results taken from publication PMC7070575, “Novel Blood–Brain Barrier Shuttle Peptides Discovered through the Phage Display Method” (Molecules, 2020).
Some results come without the dose or concentration used.

system: primary rat brain endothelial cells; experiment: Phage display bio-panning on primary rat brain endothelial cells (after subtraction on SH-SY5Y); type: cell-based; settings: occurrence among 35 phage clones randomly chosen and sequenced after the fourth round of bio-panning; Ph.D.-12 library

Row | Sequence | Frequency
1 | APTAYNKNDWAL [1.7] | 1/35
2 | AYPQKFNNNFMS [1.5] | 1/35
3 | GSWGLNDSSAAY [1.11] | 2/35
4 | HAEHSQVRGAAN [1.4] | 1/35
5 | HASGSISGFWPN [1.12] | 1/35
6 | IDLRPKDDLPQP [1.9] | 2/35
7 | IEASFYDAPRGG [1.10] | 1/35
8 | IGVRGCIWDPQP [1.1] | 1/35
9 | LNTNSQLQTNNA [1.14] | 2/35
10 | NRPDSAQFWLHH [1.8] | 1/35
11 | VIGPLDRHAHLK [1.6] | 2/35
12 | VNMVPIGGNQVV [1.13] | 1/35
